{"source": "patent US12419871B2", "about": "“Biomolecules involved in Alzheimer's disease” (ELECTROPHORETICS LIMITED, priority 2015, dated 2025)", "molecules": {"B1": {"name": "O43852 (protein, UniProt O43852 1-315, looked up)", "chain": "MDLRQFLMCLSLCTAFALSKPTEKKDRVHHEPQLSDKVHNDAQSFDYDHDAFLGAEEAKTFDQLTPEESKERLGKIVSKIDGDKDGFVTVDELKDWIKFAQKRWIYEDVERQWKGHDLNEDGLVSWEEYKNATYGYVLDDPDPDDGFNYKQMMVRDERRFKMADKDGDLIATKEEFTAFLHPEEYDYMKDIVVQETMEDIDKNADGFIDLEEYIGDMYSHDGNTDEPEWVKTEREQFVEFRDKNRDGKMDKEETKDWILPSDYDHAEAEARHLVYESDQNKDGKLTKEEIVDKYDLFVGSQATDFGEALVRHDEF", "modifications": "full-length"}, "B2": {"name": "Q8WXD9 (protein, UniProt Q8WXD9 1-1431, looked up)", "chain": "MGKEQELVQAVKAEDVGTAQRLLQRPRPGKAKLLGSTKKINVNFQDPDGFSALHHAALNGNTELISLLLEAQAAVDIKDNKGMRPLHYAAWQGRKEPMKLVLKAGSAVNIPSDEGHIPLHLAAQHGHYDVSEMLLQHQSNPCMVDNSGKTPLDLACEFGRVGVVQLLLSSNMCAALLEPRPGDATDPNGTSPLHLAAKNGHIDIIRLLLQAGIDINRQTKSGTALHEAALCGKTEVVRLLLDSGINAHVRNTYSQTALDIVHQFTTSQASREIKQLLREASAALQVRATKDYCNNYDLTSLNVKAGDIITVLEQHPDGRWKGCIHDNRTGNDRVGYFPSSLGEAIVKRAGSRAGTEPSLPQGSSSSGPSAPPEEIWVLRKPFAGGDRSGSISGMAGGRGSGGHALHAGSEGVKLLATVLSQKSVSESGPGDSPAKPPEGSAGVARSQPPVAHAGQVYGEQPPKKLEPASEGKSSEAVSQWLTAFQLQLYAPNFISAGYDLPTISRMTPEDLTAIGVTKPGHRKKIAAEISGLSIPDWLPEHKPANLAVWLSMIGLAQYYKVLVDNGYENIDFITDITWEDLQEIGITKLGHQKKLMLAVRKLAELQKAEYAKYEGGPLRRKAPQSLEVMAIESPPPPEPTPADCQSPKMTTFQDSELSDELQAAMTGPAEVGPTTEKPSSHLPPTPRATTRQDSSLGGRARHMSSSQELLGDGPPGPSSPMSRSQEYLLDEGPAPGTPPREARPGRHGHSIKRASVPPVPGKPRQVLPPGTSHFTPPQTPTKTRPGSPQALGGPHGPAPATAKVKPTPQLLPPTERPMSPRSLPQSPTHRGFAYVLPQPVEGEVGPAAPGPAPPPVPTAVPTLCLPPEADAEPGRPKKRAHSLNRYAASDSEPERDELLVPAAAGPYATVQRRVGRSHSVRAPAGADKNVNRSQSFAVRPRKKGPPPPPPKRSSSALASANLADEPVPDAEPEDGLLGVRAQCRRASDLAGSVDTGSAGSVKSIAAMLELSSIGGGGRAARRPPEGHPTPRPASPEPGRVATVLASVKHKEAIGPGGEVVNRRRTLSGPVTGLLATARRGPGESADPGPFVEDGTGRQRPRGPSKGEAGVEGPPLAKVEASATLKRRIRAKQNQQENVKFILTESDTVKRRPKAKEREAGPEPPPPLSVYHNGTGTVRRRPASEQAGPPELPPPPPPAEPPPTDLAHLPPLPPPEGEARKPAKPPVSPKPVLTQPVPKLQGSPTPTSKKVPLPGPGSPEVKRAHGTPPPVSPKPPPPPTAPKPVKAVAGLPSGSAGPSPAPSPARQPPAALAKPPGTPPSLGASPAKPPSPGAPALHVPAKPPRAAAAAAAAAAAPPAPPEGASPGDSARQKLEETSACLAAALQAVEEKIRQEDAQGPRDSAAEKSTGSILDDIGSMFDDLADQLDAMLE", "modifications": "full-length"}, "B3": {"name": "Q92851 (protein, UniProt Q92851 1-521, looked up)", "chain": "MKSQGQHWYSSSDKNCKVSFREKLLIIDSNLGVQDVENLKFLCIGLVPNKKLEKSSSASDVFEHLLAEDLLSEEDPFFLAELLYIIRQKKLLQHLNCTKEEVERLLPTRQRVSLFRNLLYELSEGIDSENLKDMIFLLKDSLPKTEMTSLSFLAFLEKQGKIDEDNLTCLEDLCKTVVPKLLRNIEKYKREKAIQIVTPPVDKEAESYQGEEELVSQTDVKTFLEALPQESWQNKHAGSNGNRATNGAPSLVSRGMQGASANTLNSETSTKRAAVYRMNRNHRGLCVIVNNHSFTSLKDRQGTHKDAEILSHVFQWLGFTVHIHNNVTKVEMEMVLQKQKCNPAHADGDCFVFCILTHGRFGAVYSSDEALIPIREIMSHFTALQCPRLAEKPKLFFIQACQGEEIQPSVSIEADALNPEQAPTSLQDSIPAEADFLLGLATVPGYVSFRHVEEGSWYIQSLCNHLKKLVPRMLKFLEKTMEIRGRKRTVWGAKQISATSLPTAISAQTPRPPMRRWSSVS", "modifications": "full-length"}, "B4": {"name": "Q86VU5 (protein, UniProt Q86VU5 1-262, looked up)", "chain": "MTQPVPRLSVPAALALGSAALGAAFATGLFLGRRCPPWRGRREQCLLPPEDSRLWQYLLSRSMREHPALRSLRLLTLEQPQGDSMMTCEQAQLLANLARLIQAKKALDLGTFTGYSALALALALPADGRVVTCEVDAQPPELGRPLWRQAEAEHKIDLRLKPALETLDELLAAGEAGTFDVAVVDADKENCSAYYERCLQLLRPGGILAVLRVLWRGKVLQPPKGDVAAECVRNLNERIRRDVRVYISLLPLGDGLTLAFKI", "modifications": "full-length"}, "B5": {"name": "Q99674 (protein, UniProt Q99674 1-318, looked up)", "chain": "MLPLTMTVLILLLLPTGQAAPKDGVTRPDSEVQHQLLPNPFQPGQEQLGLLQSYLKGLGRTEVQLEHLSREQVLLYLFALHDYDQSGQLDGLELLSMLTAALAPGAANSPTTNPVILIVDKVLETQDLNGDGLMTPAELINFPGVALRHVEPGEPLAPSPQEPQAVGRQSLLAKSPLRQETQEAPGPREEAKGQVEARRESLDPVQEPGGQAEADGDVPGPRGEAEGQAEAKGDAPGPRGEAGGQAEAEGDAPGPRGEAGGQAEAEGDAPGPRGEAGGQAEARENGEEAKELPGETLESKNTQNDFEVHIVQVENDEI", "modifications": "full-length"}, "B6": {"name": "Q96FZ7 (protein, UniProt Q96FZ7 1-201, looked up)", "chain": "MGNLFGRKKQSRVTEQDKAILQLKQQRDKLRQYQKRIAQQLERERALARQLLRDGRKERAKLLLKKKRYQEQLLDRTENQISSLEAMVQSIEFTQIEMKVMEGLQFGNECLNKMHQVMSIEEVERILDETQEAVEYQRQIDELLAGSFTQEDEDAILEELSAITQEQIELPEVPSEPLPEKIPENVPVKARPRQAELVAAS", "modifications": "full-length"}, "B7": {"name": "Q9UPT6 (protein, UniProt Q9UPT6 1-1336, looked up)", "chain": "MMEIQMDEGGGVVVYQDDYCSGSVMSERVSGLAGSIYREFERLIHCYDEEVVKELMPLVVNVLENLDSVLSENQEHEVELELLREDNEQLLTQYEREKALRRQAEEKFIEFEDALEQEKKELQIQVEHYEFQTRQLELKAKNYADQISRLEERESEMKKEYNALHQRHTEMIQTYVEHIERSKMQQVGGNSQTESSLPGRRKERPTSLNVFPLADGTVRAQIGGKLVPAGDHWHLSDLGQLQSSSSYQCPQDEMSESGQSSAAATPSTTGTKSNTPTSSVPSAAVTPLNESLQPLGDYGVGSKNSKRAREKRDSRNMEVQVTQEMRNVSIGMGSSDEWSDVQDIIDSTPELDMCPETRLDRTGSSPTQGIVNKAFGINTDSLYHELSTAGSEVIGDVDEGADLLGEFSVRDDFFGMGKEVGNLLLENSQLLETKNALNVVKNDLIAKVDQLSGEQEVLRGELEAAKQAKVKLENRIKELEEELKRVKSEAIIARREPKEEAEDVSSYLCTESDKIPMAQRRRFTRVEMARVLMERNQYKERLMELQEAVRWTEMIRASREHPSVQEKKKSTIWQFFSRLFSSSSSPPPAKRPYPSVNIHYKSPTTAGFSQRRNHAMCPISAGSRPLEFFPDDDCTSSARREQKREQYRQVREHVRNDDGRLQACGWSLPAKYKQLSPNGGQEDTRMKNVPVPVYCRPLVEKDPTMKLWCAAGVNLSGWRPNEDDAGNGVKPAPGRDPLTCDREGDGEPKSAHTSPEKKKAKELPEMDATSSRVWILTSTLTTSKVVIIDANQPGTVVDQFTVCNAHVLCISSIPAASDSDYPPGEMFLDSDVNPEDPGADGVLAGITLVGCATRCNVPRSNCSSRGDTPVLDKGQGEVATIANGKVNPSQSTEEATEATEVPDPGPSEPETATLRPGPLTEHVFTDPAPTPSSGPQPGSENGPEPDSSSTRPEPEPSGDPTGAGSSAAPTMWLGAQNGWLYVHSAVANWKKCLHSIKLKDSVLSLVHVKGRVLVALADGTLAIFHRGEDGQWDLSNYHLMDLGHPHHSIRCMAVVYDRVWCGYKNKVHVIQPKTMQIEKSFDAHPRRESQVRQLAWIGDGVWVSIRLDSTLRLYHAHTHQHLQDVDIEPYVSKMLGTGKLGFSFVRITALLVAGSRLWVGTGNGVVISIPLTETVVLHRGQLLGLRANKTSPTSGEGARPGGIIHVYGDDSSDRAASSFIPYCSMAQAQLCFHGHRDAVKFFVSVPGNVLATLNGSVLDSPAEGPGPAAPASEVEGQKLRNVLVLSGGEGYIDFRIGDGEDDETEEGAGDMSQVKPVLSKAERSHIIVWQVSYTPE", "modifications": "full-length"}, "B8": {"name": "Q8IZR5 (protein, UniProt Q8IZR5 1-234, looked up)", "chain": "MRSGEELDGFEGEASSTSMISGASSPYQPTTEPVSQRRGLAGLRCDPDYLRGALGRLKVAQVILALIAFICIETIMACSPCEGLYFFEFVSCSAFVVTGVLLIMFSLNLHMRIPQINWNLTDLVNTGLSAFLFFIASIVLAALNHRAGAEIAAVIFGFLATAAYAVNTFLAVQKWRVSVRQQSTNDYIRARTESRDVDSRPEIQRLDTFSYSTNVTVRKKSPTNLLSLNHWQLA", "modifications": "full-length"}, "B9": {"name": "Q14019 (protein, UniProt Q14019 1-142, looked up)", "chain": "MATKIDKEACRAAYNLVRDDGSAVIWVTFKYDGSTIVPGEQGAEYQHFIQQCTDDVRLFAFVRFTTGDAMSKRSKFALITWIGENVSGLQRAKTGTDKTLVKEVVQNFAKEFVISDRKELEEDFIKSELKKAGGANYDAQTE", "modifications": "full-length"}, "B10": {"name": "P53618 (protein, UniProt P53618 1-953, looked up)", "chain": "MTAAENVCYTLINVPMDSEPPSEISLKNDLEKGDVKSKTEALKKVIIMILNGEKLPGLLMTIIRFVLPLQDHTIKKLLLVFWEIVPKTTPDGRLLHEMILVCDAYRKDLQHPNEFIRGSTLRFLCKLKEAELLEPLMPAIRACLEHRHSYVRRNAVLAIYTIYRNFEHLIPDAPELIHDFLVNEKDASCKRNAFMMLIHADQDRALDYLSTCIDQVQTFGDILQLVIVELIYKVCHANPSERARFIRCIYNLLQSSSPAVKYEAAGTLVTLSSAPTAIKAAAQCYIDLIIKESDNNVKLIVLDRLIELKEHPAHERVLQDLVMDILRVLSTPDLEVRKKTLQLALDLVSSRNVEELVIVLKKEVIKTNNVSEHEDTDKYRQLLVRTLHSCSVRFPDMAANVIPVLMEFLSDNNEAAAADVLEFVREAIQRFDNLRMLIVEKMLEVFHAIKSVKIYRGALWILGEYCSTKEDIQSVMTEIRRSLGEIPIVESEIKKEAGELKPEEEITVGPVQKLVTEMGTYATQSALSSSRPTKKEEDRPPLRGFLLDGDFFVAASLATTLTKIALRYVALVQEKKKQNSFVAEAMLLMATILHLGKSSLPKKPITDDDVDRISLCLKVLSECSPLMNDIFNKECRQSLSHMLSAKLEEEKLSQKKESEKRNVTVQPDDPISFMQLTAKNEMNCKEDQFQLSLLAAMGNTQRKEAADPLASKLNKVTQLTGFSDPVYAEAYVHVNQYDIVLDVLVVNQTSDTLQNCTLELATLGDLKLVEKPSPLTLAPHDFANIKANVKVASTENGIIFGNIVYDVSGAASDRNCVVLSDIHIDIMDYIQPATCTDAEFRQMWAEFEWENKVTVNTNMVDLNDYLQHILKSTNMKCLTPEKALSGYCGFMAANLYARSIFGEDALANVSIEKPIHQGPDAAVTGHIRIRAKSQGMALSLGDKINLSQKKTSI", "modifications": "full-length"}}, "data": [{"assay": "TMTcalibrator quantification of regulated proteins in AD CSF versus control", "set-up": "species or system human", "details": "CSF of AD patient versus control; non-modified peptides of each protein summed for three control and three AD cases", "values": [{"molecule": "B1", "Log2 AD/Control": 1.15}, {"molecule": "B2", "Log2 AD/Control": 0.76}, {"molecule": "B3", "Log2 AD/Control": 1.21}, {"molecule": "B4", "Log2 AD/Control": 1.06}, {"molecule": "B5", "Log2 AD/Control": 0.86}, {"molecule": "B6", "Log2 AD/Control": 0.83}, {"molecule": "B7", "Log2 AD/Control": "−0.85"}, {"molecule": "B8", "Log2 AD/Control": 0.70}, {"molecule": "B9", "Log2 AD/Control": 0.68}, {"molecule": "B10", "Log2 AD/Control": 1.07}]}]}
